Measured values reported in article PMC7862700.
The entries are a selection whose mix differs from that of the whole data set. At the low end of the ranking the order means little.

Amino acid sequences for entries named in this document (tags omitted). A change or cut given only in a name is not applied to a line headed by its entry.
UniProt O43186: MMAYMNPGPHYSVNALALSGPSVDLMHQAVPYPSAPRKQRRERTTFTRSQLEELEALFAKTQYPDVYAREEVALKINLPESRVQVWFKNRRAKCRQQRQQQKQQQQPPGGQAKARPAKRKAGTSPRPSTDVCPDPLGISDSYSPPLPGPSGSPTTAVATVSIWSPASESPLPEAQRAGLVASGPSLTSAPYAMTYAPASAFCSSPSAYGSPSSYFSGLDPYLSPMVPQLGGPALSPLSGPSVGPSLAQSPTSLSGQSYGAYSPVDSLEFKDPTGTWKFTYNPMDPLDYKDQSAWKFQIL

biological target: CRX (UniProt O43186); assay: DAPPL (digital affinity profiling via proximity ligation, sequencing); settings: 10 mM Tris-HCl pH 7.5, 50 mM NaCl, 1 mM DTT, 4% glycerol, room temperature, 30 min; GST-TFs on glutathione beads, 16-mer random dsDNA library, 0.1% …; high values mean tight binding; double strand, one strand shown; scale: fold enrichment (6-mer frequency, TF over GST control)

| Sequence | binding signal |
| --- | --- |
| CTGAAT | 1.34 |
| TGAACT | 1.12 |
| TATCCG | 1.95 |
| AATGAG | 1.08 |
| ACTTTG | 1.18 |
| CCCACA | 0.878 |
| AACGCT | 1.17 |
| TGCCTG | 0.987 |
| GAACCT | 1.06 |
| ACTAAA | 1.6 |
| CTGCCG | 0.858 |
| TAGCTA | 1.58 |
| CGTTAC | 0.864 |
| CCGGCA | 0.808 |
| CTGGAC | 0.973 |
| CCGCGT | 0.834 |
| ATATGG | 1.19 |
| CTTTTC | 1.25 |
| CGACCT | 1.21 |
| GCATCC | 0.721 |

Single entries from above.
binding signal with CCGGCA is entered as 0.808
binding signal with CCGCGT is entered as 0.834

Additional records follow:

| Sequence | binding signal |
| --- | --- |
| ACCACC | 0.831 |
| TGGCTA | 1.35 |
| TCATGC | 1.03 |
| GAACCC | 0.87 |
| CCGCCC | 0.913 |
| GCTTTA | 1.81 |
| CGAAAG | 1.11 |
| TGTTCA | 0.919 |
| ATCCGC | 2.06 |
| ACGGCC | 0.828 |
| CTTATG | 2.2 |
| AAGGAA | 0.942 |
| TGAAAC | 0.977 |
| TGCTAA | 1.8 |
| GCCTAT | 1.3 |
| TTGGCC | 0.974 |
| GTAACA | 0.85 |
| ACTTAA | 2.66 |
| GTCTAC | 0.837 |
| CAATAA | 1.46 |
